Measurements: article PMC7327492
These are yes or no findings as the source states them, for the method shown. Binding can be weak; no strength is given. Tags and fused reporters may be left off the sequences shown. For part of these data: Binding seen in cells or lysates may run through a third protein.

Key:
[1] = target: Recombinant B56α; assay: ITC; Auto-iTC200, 25°C, 50 mM sodium phosphate pH 7.5, 200 mM NaCl, 0.5 mM TCEP; inhibitors in the syringe and B56α in the cell (direct) or vice versa (reverse), both globally fitted to a 1:1 model; both purified
[2] = target: YFP-B56α; assay: co-IP; YFP-B56α transfected into HeLa-FRT cells stably expressing mCherry B56 inhibitor or control inhibitor, mitotic cells, low salt lysis buffer, GFP-trap beads, Western blotting (and label-free MS)

Row | binding [1] | binding [2] | Binder
1 | binds |  | His-tagged 4x(LxxIxE) B56 inhibitor (designed binder) TGSTGSTGSTGSTGSLPRSSTLPTIHEEEELSLCTGSTGSTGSTGSTGSLPRSSTLPTIHEEEELSLCTGSTGSTGSTGSTGSLPRSSTLPTIHEEEELSLCTGSTGSTGSTGSTGSLPRSSTLPTIHEEEELSLC
2 |  | binds | mCherry-tagged 4x(LxxIxE) B56 inhibitor (designed binder) TGSTGSTGSTGSTGSLPRSSTLPTIHEEEELSLCTGSTGSTGSTGSTGSLPRSSTLPTIHEEEELSLCTGSTGSTGSTGSTGSLPRSSTLPTIHEEEELSLCTGSTGSTGSTGSTGSLPRSSTLPTIHEEEELSLC
3 |  | binds | Kif4A (protein, UniProt O95239 1-1232) MKEEVKGIPVRVALRCRPLVPKEISEGCQMCLSFVPGEPQVVVGTDKSFTYDFVFDPSTEQEEVFNTAVAPLIKGVFKGYNATVLAYGQTGSGKTYSMGGAYTAEQENEPTVGVIPRVIQLLFKEIDKKSDFEFTLKVSYLEIYNEEILDLLCPSREKAQINIREDPKEGIKIVGLTEKTVLVALDTVSCLEQGNNSRTVASTAMNSQSSRSHAIFTISLEQRKKSDKNSSFRSKLHLVDLAGSERQKKTKAEGDRLKEGININRGLLCLGNVISALGDDKKGGFVPYRDSKLTRLLQDSLGGNSHTLMIACVSPADSNLEETLNTLRYADRARKIKNKPIVNIDPQTAELNHLKQQVQQLQVLLLQAHGGTLPGSITVEPSENLQSLMEKNQSLVEENEKLSRGLSEAAGQTAQMLERIILTEQANEKMNAKLEELRQHAACKLDLQKLVETLEDQELKENVEIICNLQQLITQLSDETVACMAAAIDTAVEQEAQVETSPETSRSSDAFTTQHALRQAQMSKELVELNKALALKEALARKMTQNDSQLQPIQYQYQDNIKELELEVINLQKEKEELVLELQTAKKDANQAKLSERRRKRLQELEGQIADLKKKLNEQSKLLKLKESTERTVSKLNQEIRMMKNQRVQLMRQMKEDAEKFRQWKQKKDKEVIQLKERDRKRQYELLKLERNFQKQSNVLRRKTEEAAAANKRLKDALQKQREVADKRKETQSRGMEGTAARVKNWLGNEIEVMVSTEEAKRHLNDLLEDRKILAQDVAQLKEKKESGENPPPKLRRRTFSLTEVRGQVSESEDSITKQIESLETEMEFRSAQIADLQQKLLDAESEDRPKQRWENIATILEAKCALKYLIGELVSSKIQVSKLESSLKQSKTSCADMQKMLFEERNHFAEIETELQAELVRMEQQHQEKVLYLLSQLQQSQMAEKQLEESVSEKEQQLLSTLKCQDEELEKMREVCEQNQQLLRENEIIKQKLTLLQVASRQKHLPKDTLLSPDSSFEYVPPKPKPSRVKEKFLEQSMDIEDLKYCSEHSVNEHEDGDGDDDEGDDEEWKPTKLVKVSRKNIQGCSCKGWCGNKQCGCRKQKSDCGVDCCCDPTKCRNRQQGKDSLGTVERTQDSEGSFKLEDPTEVTPGLSFFNPVCATPNSKILKEMCDVEQVLSKKTPPAPSPFDLPELKHVATEYQENKAPGKKKKRALASNTSFFSGCSPIEEEAH
